# Some results were stated once for a whole list of compounds, not compound by compound.
# Legend:
# [1] = test system: Phakopsora pachyrhizi; assay: Greenhouse, curative control of rust on soy beans caused by Phakopsora pachyrhizi; type: in vivo; details: 250 ppm, soybean seedlings sprayed one day after inoculation (curative), 14 days; untreated plants 90% infected
# [2] = test system: Phytophthora infestans; type: in vivo; details: 250 ppm, tomato seedlings sprayed one day before inoculation, assessed after 6 days; untreated plants 90% infected
# [3] = test system: Puccinia recondita; assay: Greenhouse, preventative control of brown rust on wheat caused by Puccinia recondita; type: in vivo; details: 250 ppm, wheat seedlings sprayed one day before inoculation; untreated plants 90% infected
# [4] = test system: Pyricularia oryzae; type: cell-based; details: 125 ppm active compound; microtiter plate, yeast-bactopeptone-glycerol solution, 18° C., absorption 405 nm on day 7; control = 100%
# [5] = test system: Phytophthora infestans; type: cell-based; details: 125 ppm active compound; microtiter plate, pea juice-based medium, 18° C., absorption 405 nm on day 7; control = 100%
# [6] = test system: Septoria tritici; assay: Microtiter test, activity against leaf blotch on wheat caused by Septoria tritici; type: cell-based; details: 125 ppm active compound; microtiter plate, yeast-bactopeptone-glycerol solution, 18° C., absorption 405 nm on day 7; control = 100%
# [7] = test system: Phakopsora pachyrhizi; assay: Greenhouse, protective control of rust on soybeans caused by Phakopsora pachyrhizi; type: in vivo; details: 250 ppm, soybean seedlings sprayed one day before inoculation (protective), 14 days; untreated plants 90% infected
molecule,measurement,setting,value
O=S(=O)(NCc1ccncc1)c1ccc(-c2ccccn2)cc1 [Example 15],infection (% diseased leaf area),[1],less than or equal to 15%
same,infection (% diseased leaf area),[2],less than or equal to 15%
COc1ccc(-c2ccc(S(=O)(=O)NCc3ccncc3OC)cc2)cn1 [Example 61],infection (% diseased leaf area),[2],less than or equal to 15%
Cc1nccc(CNS(=O)(=O)c2ccc(-c3cnco3)cc2)c1C [Example 44],infection (% diseased leaf area),[1],less than or equal to 15%
Cc1nccc(CNS(=O)(=O)c2ccc(-c3ccc(C(F)(F)F)cn3)cc2)c1C [Example 37],infection (% diseased leaf area),[2],less than or equal to 15%
same,infection (% diseased leaf area),[3],less than or equal to 15%
Cc1ccsc1-c1ccc(S(=O)(=O)NCc2ccncc2)cc1 [Example 20],relative growth of the pathogen,[4],at most 15%
O=S(=O)(NCc1ccnc2c1CCC2)c1ccc(-c2ccc(C(F)(F)F)cn2)cc1 [Example 40],infection (% diseased leaf area),[2],less than or equal to 15%
COc1cnccc1CNS(=O)(=O)c1ccc(-c2ccoc2)cc1 [Example 59],infection (% diseased leaf area),[2],less than or equal to 15%
COc1cc(CNS(=O)(=O)c2ccc(-c3ccncc3Cl)cc2)ccn1 [Example 11],relative growth of the pathogen,[5],at most 15%
same,relative growth of the pathogen,[6],at most 15%
COc1cnccc1CNS(=O)(=O)c1ccc(-c2ccsc2)cc1 [Example 58],infection (% diseased leaf area),[2],less than or equal to 15%
COc1cc(CNS(=O)(=O)c2ccc(-c3cccnc3)cc2)ccn1 [Example 52],infection (% diseased leaf area),[2],less than or equal to 15%
same,infection (% diseased leaf area),[7],less than or equal to 15%
COc1cnccc1CNS(=O)(=O)c1ccc(-c2cccnc2)cc1 [Example 63],infection (% diseased leaf area),[2],less than or equal to 15%
COc1cc(CNS(=O)(=O)c2ccc(-c3ccc(C)nc3)cc2)ccn1 [Example 54],infection (% diseased leaf area),[2],less than or equal to 15%
Cc1cscc1-c1ccc(S(=O)(=O)NCc2ccncc2)cc1 [Example 21],relative growth of the pathogen,[4],at most 15%
CCOc1ccc(-c2ccc(S(=O)(=O)NCc3ccnc4ccccc34)cc2)cn1 [Example 32],relative growth of the pathogen,[5],at most 15%
Cc1nccc(CNS(=O)(=O)c2ccc(-c3ncc(C(F)(F)F)cc3Cl)cc2)c1C [Example 39],infection (% diseased leaf area),[3],less than or equal to 15%
COc1cc(CNS(=O)(=O)c2ccc(-c3ncc(C(F)(F)F)cc3Cl)cc2)ccn1 [Example 38],infection (% diseased leaf area),[3],less than or equal to 15%
COc1cnccc1CNS(=O)(=O)c1ccc(-c2ccncc2)cc1 [Example 64],infection (% diseased leaf area),[2],less than or equal to 15%
Cc1nccc(CNS(=O)(=O)c2ccc(-c3cccnc3)cc2)c1C [Example 74],infection (% diseased leaf area),[2],less than or equal to 15%
same,infection (% diseased leaf area),[7],less than or equal to 15%
N-(2-Methoxy-pyridin-4-ylmethyl)-4-(6-methyl-pyridin-2-yl)-benzenesulfonamide [Example 2],relative growth of the pathogen,[5],at most 15%
COc1cc(CNS(=O)(=O)c2ccc(-c3ccoc3)cc2)ccn1 [Example 47],infection (% diseased leaf area),[2],less than or equal to 15%
CON=C(C)c1ccc(-c2ccc(S(=O)(=O)NCc3ccncc3)cc2)s1 [Example 28],infection (% diseased leaf area),[1],less than or equal to 15%
COc1cc(CNS(=O)(=O)c2ccc(-c3ccncc3)cc2)ccn1 [Example 53],infection (% diseased leaf area),[2],less than or equal to 15%
same,infection (% diseased leaf area),[7],less than or equal to 15%
COc1cc(CNS(=O)(=O)c2ccc(-c3ncccn3)cc2)ccn1 [Example 41],infection (% diseased leaf area),[1],less than or equal to 15%
same,infection (% diseased leaf area),[2],less than or equal to 15%
Cc1nccc(CNS(=O)(=O)c2ccc(-c3ccco3)cc2)c1C [Example 67],infection (% diseased leaf area),[2],less than or equal to 15%
same,infection (% diseased leaf area),[3],less than or equal to 15%
COc1cc(CNS(=O)(=O)c2ccc(-c3ccncn3)cc2)ccn1 [Example 50],infection (% diseased leaf area),[2],less than or equal to 15%
same,infection (% diseased leaf area),[7],less than or equal to 15%
COc1ccc(-c2ccc(S(=O)(=O)NCc3ccnc4ccccc34)cc2)cn1 [Example 7],infection (% diseased leaf area),[2],less than or equal to 15%
O=S(=O)(NCc1ccncc1)c1ccc(-c2ccsc2)cc1 [Example 5],infection (% diseased leaf area),[2],less than or equal to 15%
COc1cc(CNS(=O)(=O)c2ccc(-c3ccc(Cl)nc3)cc2)ccn1 [Example 51],infection (% diseased leaf area),[2],less than or equal to 15%
O=S(=O)(NCc1ccncc1)c1ccc(-c2cccnc2Cl)cc1 [Example 17],relative growth of the pathogen,[5],at most 15%
same,relative growth of the pathogen,[4],at most 15%
COc1cc(CNS(=O)(=O)c2ccc(-c3cnco3)cc2)ccn1 [Example 43],infection (% diseased leaf area),[1],less than or equal to 15%
same,infection (% diseased leaf area),[2],less than or equal to 15%
Cc1cc(S(=O)(=O)NCc2ccncc2)ccc1-c1ccncc1Cl [Example 13],relative growth of the pathogen,[5],at most 15%
same,relative growth of the pathogen,[6],at most 15%
COc1ccc(-c2ccc(S(=O)(=O)NCc3ccnc(OC)c3)cc2)cn1 [Example 49],infection (% diseased leaf area),[2],less than or equal to 15%
same,infection (% diseased leaf area),[3],less than or equal to 15%
COc1cc(CNS(=O)(=O)c2ccc(-c3ccc(C(F)(F)F)cn3)cc2)ccn1 [Example 36],infection (% diseased leaf area),[2],less than or equal to 15%
same,infection (% diseased leaf area),[3],less than or equal to 15%
COc1cnccc1CNS(=O)(=O)c1ccc(-c2ccc(Cl)nc2)cc1 [Example 60],infection (% diseased leaf area),[2],less than or equal to 15%
CCOc1ccc(-c2ccc(S(=O)(=O)NCc3ccnc4ccccc34)cc2C)cn1 [Example 31],relative growth of the pathogen,[5],at most 15%
same,relative growth of the pathogen,[4],at most 15%
COc1cnccc1CNS(=O)(=O)c1ccc(-c2ccncc2Cl)cc1 [Example 14],relative growth of the pathogen,[6],at most 15%
O=S(=O)(NCc1ccnc2ccccc12)c1ccc(-c2cc(C(F)(F)F)on2)cc1 [Example 33],infection (% diseased leaf area),[2],less than or equal to 15%
COc1ccc(-c2ccc(S(=O)(=O)NCc3ccnc(C)c3C)cc2)cn1 [Example 72],infection (% diseased leaf area),[2],less than or equal to 15%
same,infection (% diseased leaf area),[7],less than or equal to 15%
Cc1ccc(-c2ccc(S(=O)(=O)NCc3ccncc3)cc2)s1 [Example 24],relative growth of the pathogen,[4],at most 15%
Cc1nccc(CNS(=O)(=O)c2ccc(-c3ncccn3)cc2)c1C [Example 42],infection (% diseased leaf area),[1],less than or equal to 15%
same,infection (% diseased leaf area),[2],less than or equal to 15%
O=S(=O)(NCc1ccnc2ccccc12)c1ccc(-c2cnco2)cc1 [Example 10],infection (% diseased leaf area),[2],less than or equal to 15%
COc1cc(CNS(=O)(=O)c2ccc(-c3cnn(-c4ccccc4)c3)cc2)ccn1 [Example 57],infection (% diseased leaf area),[2],less than or equal to 15%
O=S(=O)(NCc1ccncc1)c1ccc(-c2ccc(F)nc2)cc1 [Example 18],infection (% diseased leaf area),[2],less than or equal to 15%
N-(2-Methoxy-pyridin-4-ylmethyl)-4-(pyrimidin-5-yl)-benzenesulfonamide [Example 1],infection (% diseased leaf area),[1],less than or equal to 15%
COc1cnccc1CNS(=O)(=O)c1ccc(-c2ccncn2)cc1 [Example 62],infection (% diseased leaf area),[2],less than or equal to 15%
same,infection (% diseased leaf area),[7],less than or equal to 15%
CCON=C(C)c1ccc(-c2ccc(S(=O)(=O)NCc3ccncc3)cc2)s1 [Example 29],relative growth of the pathogen,[4],at most 15%
O=S(=O)(NCc1ccncc1)c1ccc(-c2ccc(Cl)s2)cc1 [Example 23],infection (% diseased leaf area),[1],less than or equal to 15%
Cc1nccc(CNS(=O)(=O)c2ccc(-c3ccoc3)cc2)c1C [Example 70],infection (% diseased leaf area),[2],less than or equal to 15%
Cc1nccc(CNS(=O)(=O)c2ccc(-c3ccc(Cl)nc3)cc2)c1C [Example 71],infection (% diseased leaf area),[2],less than or equal to 15%
Cc1nccc(CNS(=O)(=O)c2ccc(-c3ccncn3)cc2)c1C [Example 73],infection (% diseased leaf area),[7],less than or equal to 15%
"COc1cc(CNS(=O)(=O)c2ccc(-c3cccc(C)n3)cc2)ccn1 [Example 56, N-(2-Methoxy-pyridin-4-ylmethyl)-4-(6-methyl-pyridin-2-yl)-benzenesulfonamide]",infection (% diseased leaf area),[2],less than or equal to 15%
CCc1cc(-c2ccncc2Cl)ccc1S(=O)(=O)NCc1ccncc1 [Example 12],relative growth of the pathogen,[5],at most 15%

# From US20110065577A1 (priority 2008, published 2011)
